Assay results reported in PubChem BioAssay AID662 (National Center for Advancing Translational Sciences (NCATS), 2007).
Some of the results follow. The main result of the screen is listed elsewhere. These columns were measured beside it and carry no call. The list favours compounds with an active or inconclusive main result. Potencies come from curve fits of mixed quality, noted in brackets.

Assay: Cell signaling CRE-BLA (Fsk stim)
Conditions: CHO CRE-bla reporter (cAMP response element driving beta-lactamase), forskolin EC10, beta-lactamase ratio; measured here: 460 nm blue channel
Method in brief: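 qHTS titration format; CRE-bla CHO reporter; stimulus EC10 NKH 477, a water-soluble forskolin. Read: CCF4 460/530 nm ratio. Potency expressed as AC50 for activators or inhibitors.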

SMILES | AC50
Cc1ccc(NC(=O)c2cccc(N(C)C)c2)cc1NC(=O)c1ccc(O)cc1 | 10 µM [falling, partial curve, poor fit]
CCOC(=O)c1[nH]c2ccc(F)cc2c1NC(=O)CN1CCN(C/C=C/c2ccccc2)CC1 | 12.6 µM [rising, partial curve]
O=C(NC1CC2CCC1C2)C1CCN(S(=O)(=O)c2ccc(-c3nn[nH]n3)cc2)CC1 (stereo unspecified) | 3.98 µM [falling, single point]
O=C1CC(c2nc3ccccc3[nH]2)CN1c1cccc(C(F)(F)F)c1 (stereo unspecified) | 15.8 µM [rising, partial curve]
COc1cc(NC(=O)CSc2nnc3n2C(C)(C)Cc2ccccc2-3)cc(OC)c1 | 31.6 µM [falling, single point]
Nc1c2c(nc3ccccc13)CCCC2 | 15.8 µM [rising, partial curve, poor fit]
C=CCn1c(-c2cc(OC)c(OC)c(OC)c2)n[nH]c1=S | 10 µM [rising, single point]
O=C(NCc1ccccn1)Nc1ccc(Cl)c(Cl)c1 | 3.16 µM [rising, single point]
CCCNc1nc2c(c(=O)n(C)c(=O)n2C)n1Cc1cccc(C)c1 | 25.1 µM [rising, single point]
COc1ncc2nc(-c3ccc(Cl)cc3)c(=O)n(C)c2n1 | 20 µM [rising, single point]
O=C1OC(Nc2ccc3c(c2)OCO3)c2ccccc21 (stereo unspecified) | 10 µM [falling, single point]
CN(C)C(=O)c1ccc(-c2ccc3ncnc(N(C)Cc4ccco4)c3c2)cc1 | 6.31 µM [rising, full curve, poor fit]
CCCCCn1c(=NC(=O)c2ccco2)c(C(=O)OCC)cc2c(=O)n3ccccc3nc21 | 15.8 µM [rising, partial curve]
COc1ccc(Cn2c(C3CC3)nc3ccc(NC(=O)C4CC4)cc3c2=O)cc1 | 25.1 µM [rising, single point]
Cc1ccc(NC(=O)N2CCCC2C(=O)NCCC2=CCCCC2)cc1 (stereo unspecified) | 3.16 µM [falling, full curve]
CN(C)c1cccc2c(S(=O)(=O)Nc3ccccn3)cccc12 | 12.6 µM [rising, single point]
C1=C(CN2CCOCC2)COc2c1cccc2OC[C@@H]1CNCCO1 | 25.1 µM [falling, single point]
C/C(NC(=O)c1ccccc1)=C1/C(=O)CC2C1C2(C)C (stereo unspecified) | 0.316 µM [rising, partial curve]
COc1cccc(C2NC(=O)NC(C)=C2C(=O)Nc2cc(OC)ccc2OC)c1 (stereo unspecified) | 10 µM [rising, single point]
COCCn1c(-c2ccccc2)nc2oc3ccccc3c(=O)c2c1=O | 10 µM [rising, partial curve]
CN1CCc2c(sc(/N=C/c3cccs3)c2C(N)=O)C1 | 12.6 µM [rising, partial curve]
Cc1ccc2c(c1)[nH]c1c(N3CCN(Cc4ccccc4)CC3)ncnc12 | 15.8 µM [falling, partial curve]

16 entries from above, with tabs:
SMILES	AC50
O=C1CC(c2nc3ccccc3[nH]2)CN1c1cccc(C(F)(F)F)c1 (stereo unspecified)	15.8 µM [rising, partial curve]
COc1cc(NC(=O)CSc2nnc3n2C(C)(C)Cc2ccccc2-3)cc(OC)c1	31.6 µM [falling, single point]
Nc1c2c(nc3ccccc13)CCCC2	15.8 µM [rising, partial curve, poor fit]
C=CCn1c(-c2cc(OC)c(OC)c(OC)c2)n[nH]c1=S	10 µM [rising, single point]
O=C(NCc1ccccn1)Nc1ccc(Cl)c(Cl)c1	3.16 µM [rising, single point]
CCCNc1nc2c(c(=O)n(C)c(=O)n2C)n1Cc1cccc(C)c1	25.1 µM [rising, single point]
COc1ncc2nc(-c3ccc(Cl)cc3)c(=O)n(C)c2n1	20 µM [rising, single point]
O=C1OC(Nc2ccc3c(c2)OCO3)c2ccccc21 (stereo unspecified)	10 µM [falling, single point]
CN(C)C(=O)c1ccc(-c2ccc3ncnc(N(C)Cc4ccco4)c3c2)cc1	6.31 µM [rising, full curve, poor fit]
CCCCCn1c(=NC(=O)c2ccco2)c(C(=O)OCC)cc2c(=O)n3ccccc3nc21	15.8 µM [rising, partial curve]
COc1ccc(Cn2c(C3CC3)nc3ccc(NC(=O)C4CC4)cc3c2=O)cc1	25.1 µM [rising, single point]
Cc1ccc(NC(=O)N2CCCC2C(=O)NCCC2=CCCCC2)cc1 (stereo unspecified)	3.16 µM [falling, full curve]
CN(C)c1cccc2c(S(=O)(=O)Nc3ccccn3)cccc12	12.6 µM [rising, single point]
C1=C(CN2CCOCC2)COc2c1cccc2OC[C@@H]1CNCCO1	25.1 µM [falling, single point]
C/C(NC(=O)c1ccccc1)=C1/C(=O)CC2C1C2(C)C (stereo unspecified)	0.316 µM [rising, partial curve]
COc1cccc(C2NC(=O)NC(C)=C2C(=O)Nc2cc(OC)ccc2OC)c1 (stereo unspecified)	10 µM [rising, single point]

The results go on:

SMILES | AC50
CC(=O)c1ccc(OCCCC(=O)OCc2nnc(-c3ccc(Cl)cc3)o2)cc1 | 0.316 µM [falling, partial curve]
O=c1cc(-c2ccccc2)oc2cc(O)cc(O)c12 | 10 µM [falling, single point]
CCn1c2ccccc2c2cc(C3C(C#N)=C(N)Oc4n[nH]c(COC)c43)ccc21 (stereo unspecified) | 12.6 µM [rising, partial curve]
O=C(O)CCC(=O)N1CCc2cc(S(=O)(=O)N3CCCCC3)ccc21 | 0.1 µM [falling, full curve, poor fit]
CS(=O)(=O)N(CC(=O)Nc1cccnc1)c1ccc2c(c1)OCCO2 | 25.1 µM [rising, single point]
CN1CCN(c2ncnc3ccc(-c4cccc(C#N)c4)cc23)CC1 | 12.6 µM [rising, partial curve]
CCNc1nc2c(c(=O)[nH]c(=O)n2C)n1Cc1ccc(F)cc1 | 7.94 µM [rising, partial curve]
CSc1ncnc2c1ncn2CC(=O)[C@H]1CC[C@H]2[C@H]3CCC4=CC(=O)CC[C@@]4(C)[C@@H]3CC[C@@]12C | 5.01 µM [rising, single point]
Cc1nc2ccccc2c2oc(C(=O)N3CCN(C4CCCCC4)CC3)cc12 | 12.6 µM [rising, partial curve]
O=c1[nH]c(C2CCCN(S(=O)(=O)c3ccc(F)cc3)C2)nc2c1nnn2Cc1ccccc1 (stereo unspecified) | 10 µM [rising, partial curve]
N#Cc1cccc(NC(=O)N2CCC(c3nc4c(nnn4Cc4cccc(Cl)c4)c(=O)[nH]3)CC2)c1 | 0.00316 µM [rising, full curve, poor fit]
O=C(CCCCCn1c(SCC(=O)c2ccccc2)nc2ccccc2c1=O)NCc1ccco1 | 3.98 µM [rising, full curve, poor fit]
Cc1ccc(OCC(=O)Nc2ccc3c(c2)nc(CCN2CCOCC2)n3C)cc1 | 12.6 µM [rising, single point]
COc1ccc(-n2c(=O)c3ccccc3n(CC(=O)NC3CCCCC3)c2=O)c(OC)c1 | 0.00794 µM [falling, full curve, poor fit]
COc1cccc(-c2nn(C)c3sc(C(=O)NCc4ccc5c(c4)OCO5)cc23)c1 | 1 µM [rising, full curve]
O=c1cnc2cnc(Nc3ccccc3)nc2n1Cc1ccc(F)cc1 | 25.1 µM [rising, partial curve]
COc1ccccc1NS(=O)(=O)c1ccc(NC(=O)c2nc3ncccn3n2)cc1 | 25.1 µM [rising, single point]
COc1ccc(CN2CCCC2C(=O)Nc2ccc(OC)c(OC)c2)cc1OC (stereo unspecified) | 10 µM [rising, partial curve]
Cc1ccc(C)c(N2CCN(C(=O)CCNC(=O)Cn3ccc4ccccc4c3=O)CC2)c1 | 0.00316 µM [falling, full curve, poor fit]
COc1ccccc1NC(=O)N(Cc1ccco1)Cc1cc2c(C)ccc(C)c2[nH]c1=O | 12.6 µM [falling, single point]
COc1ccc(Cl)cc1NC(=O)c1ccoc1C | 0.00316 µM [falling, full curve, poor fit]
Cc1cc(C)n2nc(SCc3cc(=O)n4c(C)cccc4n3)nc2n1 | 1.26 µM [rising, full curve]

SMILES | AC50
COc1ccc(-c2cc(C(F)(F)F)nc(N3CCOCC3)n2)cc1OC | 5.01 µM [rising, partial curve]
Cc1nc2sc3c(c2c(=O)[nH]1)CCC3 | 12.6 µM [rising, partial curve]
O=C(NC1CCCc2ccccc21)c1cccnc1 (stereo unspecified) | 0.0398 µM [falling, full curve, poor fit]
COc1ccc(-c2cc(C(F)(F)F)n3nc(C)cc3n2)cc1 | 12.6 µM [rising, partial curve]
CCCNC(=O)N1CCN(S(=O)(=O)c2ccc(C)cc2)CC1 | 0.631 µM [falling, full curve, poor fit]
COc1ccc(-n2ccnc2SCC(=O)Nc2ccc(OC)cc2OC)cc1 | 10 µM [rising, single point]
O=c1c(-c2cc(F)cc(F)c2)nc2cnc(N3CCOCC3)nc2n1-c1ccccc1 | 1.58 µM [rising, full curve]
COc1cc(C(Nc2ccccn2)c2ccc3ccc(C)nc3c2O)cc(OC)c1O (stereo unspecified) | 10 µM [falling, partial curve]
Cc1ccc(C(=O)c2cn[nH]c2-c2cc(Cl)ccc2O)cc1 | 5.01 µM [falling, full curve, poor fit]
CCOc1ccc(Cc2nnc(N)s2)cc1OCC | 12.6 µM [rising, partial curve]
COC(=O)c1ccccc1NC(=O)c1ccc(F)cc1 | 7.94 µM [rising, partial curve]
COc1ccc(N2CCN(C(=O)c3ccc(C)c(Cl)c3)CC2)cc1 | 12.6 µM [rising, partial curve]
CN(c1nc2c(c(=O)n(C)c(=O)n2C)n1CC(=O)c1ccccc1)C1CCCCC1 | 10 µM [falling, single point]
COC(=O)c1ccccc1NC(=O)C1CCCN(c2nnc(-n3cccc3)s2)C1 (stereo unspecified) | 12.6 µM [rising, partial curve]
O=c1c(-c2ccc(Cl)cc2)nc2cnc(N3CCNCC3)nc2n1CCc1ccccc1 | 2.51 µM [rising, full curve]
CCOc1ccc(C(=O)N2CCN(c3cccc(C)c3C)CC2)cc1 | 0.0501 µM [rising, partial curve, poor fit]
CCCCC(=O)Nc1ncc(Br)s1 | 12.6 µM [falling, single point]
O=C(O)CCCn1nc(C(F)(F)F)c2c1CCCCC2 | 1.26 µM [rising, partial curve]
O=c1c(-c2ccccc2)nc2cnc(N3CCOCC3)nc2n1CCc1ccccc1 | 2.51 µM [rising, full curve]
Cc1cc(OCC(=O)N2CCOCC2)cc2oc(=O)c3ccccc3c12 | 10 µM [rising, partial curve]
COc1cc(NC(=O)CN(c2ccc(C)cc2)S(=O)(=O)c2c(C)nn(C)c2C)cc(OC)c1 | 25.1 µM [rising, single point]
c1coc(CNc2ncnc3sc4c(c23)CCCCC4)c1 | 15.8 µM [rising, single point]
